Laboratory results taken from paper PMC4887207, “Viral hijacking of a replicative helicase loader and its implications for helicase loading control and phage replication” (eLife, 2016).

How the values were obtained:
[1] = target: T1, SaDnaI^AAA+ (residues 136-306) (Staphylococcus aureus) (UniProt Q3ZUA6); assay: fluorescence polarisation; anisotropy-based competition; 20 nM labeled 77ORF104 and 2 µM SaDnaI^AAA+, unlabeled 77ORF104 or mutant titrated; 50 mM HEPES-KOH pH 7.5, 125 mM KCl, 10% glycerol, 5 mM MgCl2, 1 mM DTT; apparent; both purified
T1 sequence: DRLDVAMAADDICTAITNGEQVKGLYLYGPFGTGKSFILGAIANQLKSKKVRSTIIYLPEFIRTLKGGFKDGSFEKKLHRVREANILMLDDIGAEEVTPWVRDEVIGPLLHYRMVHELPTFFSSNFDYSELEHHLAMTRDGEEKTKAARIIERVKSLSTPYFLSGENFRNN

[2] = target: T2, SeMet-SaDnaI^AAA+ (Staphylococcus aureus) (UniProt Q3ZUA6); assay: crystal structure; ADP•BeF3-bound SaDnaI^AAA+•77ORF104 complex, SeMet SAD, 1.9 Å; complex formed with two-fold excess of 77ORF104; both purified
T2 sequence (chain, selenomethionine labeled): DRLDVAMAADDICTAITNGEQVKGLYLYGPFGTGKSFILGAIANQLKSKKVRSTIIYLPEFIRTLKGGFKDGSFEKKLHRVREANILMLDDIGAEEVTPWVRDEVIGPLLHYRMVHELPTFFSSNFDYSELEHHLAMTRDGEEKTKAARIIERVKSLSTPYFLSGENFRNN

[3] = target: T3, full-length Staphylococcus aureus DnaI (Staphylococcus aureus) (UniProt Q3ZUA6); assay: limited trypsin proteolysis; SaDnaI alone or with 77ORF104, trypsin 30 min at 25°C; 500 mM KCl, 50 mM HEPES-KOH pH 7.5, 10 mM MgCl2, 10% glycerol; SDS-PAGE; both purified
T3 sequence: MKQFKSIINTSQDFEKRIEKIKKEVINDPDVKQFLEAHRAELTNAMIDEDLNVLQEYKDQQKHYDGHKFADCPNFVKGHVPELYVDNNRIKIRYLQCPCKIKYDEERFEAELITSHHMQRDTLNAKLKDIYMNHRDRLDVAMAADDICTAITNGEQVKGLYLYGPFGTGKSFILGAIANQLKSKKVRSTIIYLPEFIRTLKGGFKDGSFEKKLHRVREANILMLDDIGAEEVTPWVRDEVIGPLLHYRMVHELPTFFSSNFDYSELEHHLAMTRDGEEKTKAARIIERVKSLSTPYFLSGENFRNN

[4] = target: His6MBP-tagged phage loader 77ORF013 (Staphylococcus bacteriophage 77); assay: pull-down; amylose pull-down, His6MBP-tagged protein as bait (10 µM), untagged protein as prey (20 µM); without ATP or nucleotide where stated (Figures 2C, 4C), ATP not told for the other panels; 20 mM HEPES-KOH pH 7.5, 100 mM NaCl, 5 mM MgCl2, 10% glycerol, 1 mM DTT, 25°C; SDS-PAGE; both purified
[5] = target: His6MBP-77ORF104 (Staphylococcus bacteriophage 77); assay: as above
[6] = target: His6MBP-77ORF104 (Staphylococcus bacteriophage 77); assay: condition: 10 µM His6MBP-tagged and 20 µM untagged protein; pull-down; amylose pull-down, His6MBP-tagged protein as bait (10 µM), untagged protein as prey (20 µM); without ATP or nucleotide where stated (Figures 2C, 4C), ATP not told for the other panels; 20 mM HEPES-KOH pH 7.5, 100 mM NaCl, 5 mM MgCl2, 10% glycerol, 1 mM DTT, 25°C; SDS-PAGE; both purified

77ORF104^K39E (Staphylococcus bacteriophage 77)
binding [1]: binds

77ORF104^Δ47–52 (Staphylococcus bacteriophage 77) (domain or fragment)
binding [1]: no binding

phage 77 ORF104 protein (Staphylococcus bacteriophage 77)
binding [2]: binds
binding [3]: binds

B1: SaDnaC replicative helicase (natural protein, Staphylococcus aureus, UniProt Q9AQH7 1-466, looked up)
chain: MDRMYEQNQMPHNNEAEQSVLGSIIIDPELINTTQEVLLPESFYRGAHQHIFRAMMHLNEDNKEIDVVTLMDQLSTEGTLNEAGGPQYLAELSTNVPTTRNVQYYTDIVSKHALKRRLIQTADSIANDGYNDELELDAILSDAERRILELSSSRESDGFKDIRDVLGQVYETAEELDQNSGQTPGIPTGYRDLDQMTAGFNRNDLIILAARPSVGKTAFALNIAQKVATHEDMYTVGIFSLEMGADQLATRMICSSGNVDSNRLRTGTMTEEDWSRFTIAVGKLSRTKIFIDDTPGIRINDLRSKCRRLKQEHGLDMIVIDYLQLIQGSGSRASDNRQQEVSEISRTLKALARELKCPVIALSQLSRGVEQRQDKRPMMSDIRESGSIEQDADIVAFLYRDDYYNRGGDEDDDDDGGFEPQTNDENGEIEIIIAKQRNGPTGTVKLHFMKQYNKFTDIDYAHADMM
notes: Staphylococcus aureus replicative helicase DnaC (a DnaB-family helicase); also called S. aureus DnaC replicative helicase; host helicase; not shown: His6, N-terminal, cleaved; MBP, N-terminal, cleaved
binding [4]: binds

B2: SaDnaI^CTD (117-306) (domain or fragment, UniProt Q3ZUA6 117-306)
chain: HMQRDTLNAKLKDIYMNHRDRLDVAMAADDICTAITNGEQVKGLYLYGPFGTGKSFILGAIANQLKSKKVRSTIIYLPEFIRTLKGGFKDGSFEKKLHRVREANILMLDDIGAEEVTPWVRDEVIGPLLHYRMVHELPTFFSSNFDYSELEHHLAMTRDGEEKTKAARIIERVKSLSTPYFLSGENFRNN
binding [5]: binds

B3: SaDnaI^AAA+ (residues 136-306) (domain or fragment, UniProt Q3ZUA6 136-306)
chain: DRLDVAMAADDICTAITNGEQVKGLYLYGPFGTGKSFILGAIANQLKSKKVRSTIIYLPEFIRTLKGGFKDGSFEKKLHRVREANILMLDDIGAEEVTPWVRDEVIGPLLHYRMVHELPTFFSSNFDYSELEHHLAMTRDGEEKTKAARIIERVKSLSTPYFLSGENFRNN
binding [5]: binds

B4: SaDnaI^NTD (residues 1-117) (domain or fragment, UniProt Q3ZUA6 1-117)
chain: MKQFKSIINTSQDFEKRIEKIKKEVINDPDVKQFLEAHRAELTNAMIDEDLNVLQEYKDQQKHYDGHKFADCPNFVKGHVPELYVDNNRIKIRYLQCPCKIKYDEERFEAELITSHH
binding [6]: no binding

Results are given in words; binding and its absence hold for the method and conditions named. For some assays here: Binding can be weak; no strength is given.
